Source: article PMC7782530
Results are given in words; binding and its absence hold for the method and conditions named. Binding seen in cells or lysates may run through a third protein. Some binding calls cover weakened binding; strength is not graded here.

The chains behind the UniProt entries cited, without tags or fusion partners.
UniProt Q92597: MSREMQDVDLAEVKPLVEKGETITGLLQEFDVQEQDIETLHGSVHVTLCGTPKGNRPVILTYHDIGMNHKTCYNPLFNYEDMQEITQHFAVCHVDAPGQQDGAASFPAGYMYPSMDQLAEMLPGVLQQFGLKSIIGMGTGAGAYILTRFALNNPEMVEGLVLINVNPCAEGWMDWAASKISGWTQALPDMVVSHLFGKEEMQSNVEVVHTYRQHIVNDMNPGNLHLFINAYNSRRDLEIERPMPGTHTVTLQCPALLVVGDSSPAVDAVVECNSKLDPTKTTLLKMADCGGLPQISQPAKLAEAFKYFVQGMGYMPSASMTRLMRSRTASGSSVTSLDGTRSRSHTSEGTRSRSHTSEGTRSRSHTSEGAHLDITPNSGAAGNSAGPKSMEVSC
UniProt P10275: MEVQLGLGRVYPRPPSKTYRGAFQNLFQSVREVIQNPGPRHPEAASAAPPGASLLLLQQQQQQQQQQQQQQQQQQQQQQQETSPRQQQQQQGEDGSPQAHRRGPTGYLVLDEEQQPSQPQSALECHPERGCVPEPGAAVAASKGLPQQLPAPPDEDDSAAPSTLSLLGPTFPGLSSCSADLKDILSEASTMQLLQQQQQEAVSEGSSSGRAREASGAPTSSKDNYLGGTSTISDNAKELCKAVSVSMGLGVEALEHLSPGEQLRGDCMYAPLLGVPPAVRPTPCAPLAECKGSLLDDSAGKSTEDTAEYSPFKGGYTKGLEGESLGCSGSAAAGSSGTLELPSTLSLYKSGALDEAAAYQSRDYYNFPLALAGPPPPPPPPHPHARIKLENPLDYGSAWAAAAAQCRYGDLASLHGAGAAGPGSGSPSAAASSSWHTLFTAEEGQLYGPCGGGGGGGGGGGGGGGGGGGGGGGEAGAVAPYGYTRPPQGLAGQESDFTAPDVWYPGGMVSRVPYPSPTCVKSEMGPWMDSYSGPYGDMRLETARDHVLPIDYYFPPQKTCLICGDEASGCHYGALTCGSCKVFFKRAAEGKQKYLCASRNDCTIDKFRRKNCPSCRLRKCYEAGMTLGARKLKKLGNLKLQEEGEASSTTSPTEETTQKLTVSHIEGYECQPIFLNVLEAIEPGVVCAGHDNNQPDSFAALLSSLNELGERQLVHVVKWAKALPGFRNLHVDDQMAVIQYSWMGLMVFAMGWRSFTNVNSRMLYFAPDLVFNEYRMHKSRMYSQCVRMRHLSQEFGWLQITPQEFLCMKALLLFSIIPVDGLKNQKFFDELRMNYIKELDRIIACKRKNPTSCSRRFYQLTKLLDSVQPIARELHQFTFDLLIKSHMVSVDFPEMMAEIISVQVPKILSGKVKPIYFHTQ

Target: N-Myc Downstream-Regulated Gene 1 (NDRG1), endogenous in LNCaP cells (human (endogenous in LNCaP)) (UniProt Q92597)
Assay: co-IP; endogenous NDRG1 immunoprecipitated from LNCaP cells, with or without PIM1 overexpression; western blot for AR

androgen receptor (AR), endogenous in LNCaP cells (from UniProt P10275 1-920)
binding: binds
